B1: UBA7 (enzyme, UniProt Q9DBK7 1-977)
chain: MDEELYSRQLYVLGLPAMQRIQEAKVLLCGLQGLGAEVAKNLVLTGVGSLTLHDPHPTCWADLAAQCFLSEESLGRNRAEASQAQLAQLNEAVQISVHSGDITEDLLQGFQVVVLTDSKLEDQLKVGPLCHKHGVRFLMAETRGLVGRLFCDFGEDFTVLDPTEVEPMTAAIQDISQGFPGIVTLRGDTKRHSFHDGDLVIFSDIEGMVELNSCSPQSVRVQKDGSLEIGDTTTFSRYLRGGVVTEVKRPKTVRHKPLDIALLQPHVVAQNTQEVQRAHCLHQAFHVLHKFQQLHGRLPKPWDPDDAETVVELAQDLEPLKGTEEESLDEALLRTIALSSAGTLSPMAAIMGGVAAQEVLKAISRKFMPLDQWLYFDALECLPEDETLLPSPEDCQPRNCRYDGQIAVFGTDLQEKLSDQHYLLVGAGAIGCEMLKVFALVGLGVRANGGVTVADMDYIERSNLSRQFLFRPKDVRRPKAEVAAAAAHRLNPDLRATPYTCPLDPTTEDIYDDSFFSRVNGVVAALDSFQARHYVAARCTHYLKPLLEAGTQGTWGSASVFVPYVTEAYRGPASDAASEDAPYPVCTLRHIPSSMEHSVQWAQDQFEGLFRLSTETINCYQQTCTSLSATDRTETLALLQQVMGVLRTRPQTWQDCVVWALGHWQLCFHDKVLEGGTQFSSGSNKCPHPLQFDPNHDMHFLYVLAAANLYARMHGLPGSQSQPALRELLTRLLESDSRPQNLFSAEHGQEQLKELQETLDDWRKGPPLKPVLFVKDDDSNFHVDFVVAATDLRCQNYGILPVNHARIKQIVGRIIPAIATSTAVVAGLLGLELYKVVSGLRSHGTFRHSYLHLAENHFIRSAPSAPAVQSFRDLKWTCWDRLKVPAVQPERTLKSLLAHLQEEHGLKVEMLLHHQALLYSSGWSSEKQAQHLCLRVTELVQHVTGWKPKPGLKVLVFELSCEGEEEEMAFPPLHYEL
B2: TRAF1 (protein, UniProt P39428 1-409)
chain: MASSSAPDENEFQFGCPPAPCQDPSEPRVLCCTACLSENLRDDEDRICPKCRADNLHPVSPGSPLTQEKVHSDVAEAEIMCPFAGVGCSFKGSPQSMQEHEATSQSSHLYLLLAVLKEWKSSPGSNLGSAPMALERNLSELQLQAAVEATGDLEVDCYRAPCCESQEELALQHLVKEKLLAQLEEKLRVFANIVAVLNKEVEASHLALAASIHQSQLDREHILSLEQRVVELQQTLAQKDQVLGKLEHSLRLMEEASFDGTFLWKITNVTKRCHESVCGRTVSLFSPAFYTAKYGYKLCLRLYLNGDGSGKKTHLSLFIVIMRGEYDALLPWPFRNKVTFMLLDQNNREHAIDAFRPDLSSASFQRPQSETNVASGCPLFFPLSKLQSPKHAYVKDDTMFLKCIVDTSA
B3: MEX3A (protein, UniProt G3UYU0 1-520)
chain: MPSLVVSGIMERNGGFGELGCFGGSAKDRGLLEDERALQLALDQLCLLGLGEPPAPTAGEDGGGGGGGAPAQPAAPPQPAPPPPPAAAPAAPSAAPAAQTPQPPTAPKGANDAKLCALYKEAELRLKGSSNTTECVPVPTSEHVAEIVGRQGCKIKALRAKTNTYIKTPVRGEEPVFMVTGRREDVATARREIISAAEHFSMIRASRNKSGAAFGVAPALPGQVTIRVRVPYRVVGLVVGPKGATIKRIQQQTNTYIITPSRDRDPVFEITGAPGNVERAREEIETHIAVRTGKILEYNSDGDFLAGSPDAALDSRYSDAWRVHAPGCKPLSTFRQNSLGCIGECGVDSAFEAPRLSEQGGDFGYSGYLFPGYGVGKQDVYYGVAETSPPLWAGQENATPTSVLFSSASSSSSSAKARAGPPGAHRSPATSAGPEQLTGLPRRPPGEPLQGFSKLGTGGLRSPGSGRDCMVCFESEVTAALVPCGHNLFCMECAVRICERTDPECPVCHITATQAIRIFS

By UniProt entry, the sequences of proteins in these tests, tags left out.
UniProt E9Q555: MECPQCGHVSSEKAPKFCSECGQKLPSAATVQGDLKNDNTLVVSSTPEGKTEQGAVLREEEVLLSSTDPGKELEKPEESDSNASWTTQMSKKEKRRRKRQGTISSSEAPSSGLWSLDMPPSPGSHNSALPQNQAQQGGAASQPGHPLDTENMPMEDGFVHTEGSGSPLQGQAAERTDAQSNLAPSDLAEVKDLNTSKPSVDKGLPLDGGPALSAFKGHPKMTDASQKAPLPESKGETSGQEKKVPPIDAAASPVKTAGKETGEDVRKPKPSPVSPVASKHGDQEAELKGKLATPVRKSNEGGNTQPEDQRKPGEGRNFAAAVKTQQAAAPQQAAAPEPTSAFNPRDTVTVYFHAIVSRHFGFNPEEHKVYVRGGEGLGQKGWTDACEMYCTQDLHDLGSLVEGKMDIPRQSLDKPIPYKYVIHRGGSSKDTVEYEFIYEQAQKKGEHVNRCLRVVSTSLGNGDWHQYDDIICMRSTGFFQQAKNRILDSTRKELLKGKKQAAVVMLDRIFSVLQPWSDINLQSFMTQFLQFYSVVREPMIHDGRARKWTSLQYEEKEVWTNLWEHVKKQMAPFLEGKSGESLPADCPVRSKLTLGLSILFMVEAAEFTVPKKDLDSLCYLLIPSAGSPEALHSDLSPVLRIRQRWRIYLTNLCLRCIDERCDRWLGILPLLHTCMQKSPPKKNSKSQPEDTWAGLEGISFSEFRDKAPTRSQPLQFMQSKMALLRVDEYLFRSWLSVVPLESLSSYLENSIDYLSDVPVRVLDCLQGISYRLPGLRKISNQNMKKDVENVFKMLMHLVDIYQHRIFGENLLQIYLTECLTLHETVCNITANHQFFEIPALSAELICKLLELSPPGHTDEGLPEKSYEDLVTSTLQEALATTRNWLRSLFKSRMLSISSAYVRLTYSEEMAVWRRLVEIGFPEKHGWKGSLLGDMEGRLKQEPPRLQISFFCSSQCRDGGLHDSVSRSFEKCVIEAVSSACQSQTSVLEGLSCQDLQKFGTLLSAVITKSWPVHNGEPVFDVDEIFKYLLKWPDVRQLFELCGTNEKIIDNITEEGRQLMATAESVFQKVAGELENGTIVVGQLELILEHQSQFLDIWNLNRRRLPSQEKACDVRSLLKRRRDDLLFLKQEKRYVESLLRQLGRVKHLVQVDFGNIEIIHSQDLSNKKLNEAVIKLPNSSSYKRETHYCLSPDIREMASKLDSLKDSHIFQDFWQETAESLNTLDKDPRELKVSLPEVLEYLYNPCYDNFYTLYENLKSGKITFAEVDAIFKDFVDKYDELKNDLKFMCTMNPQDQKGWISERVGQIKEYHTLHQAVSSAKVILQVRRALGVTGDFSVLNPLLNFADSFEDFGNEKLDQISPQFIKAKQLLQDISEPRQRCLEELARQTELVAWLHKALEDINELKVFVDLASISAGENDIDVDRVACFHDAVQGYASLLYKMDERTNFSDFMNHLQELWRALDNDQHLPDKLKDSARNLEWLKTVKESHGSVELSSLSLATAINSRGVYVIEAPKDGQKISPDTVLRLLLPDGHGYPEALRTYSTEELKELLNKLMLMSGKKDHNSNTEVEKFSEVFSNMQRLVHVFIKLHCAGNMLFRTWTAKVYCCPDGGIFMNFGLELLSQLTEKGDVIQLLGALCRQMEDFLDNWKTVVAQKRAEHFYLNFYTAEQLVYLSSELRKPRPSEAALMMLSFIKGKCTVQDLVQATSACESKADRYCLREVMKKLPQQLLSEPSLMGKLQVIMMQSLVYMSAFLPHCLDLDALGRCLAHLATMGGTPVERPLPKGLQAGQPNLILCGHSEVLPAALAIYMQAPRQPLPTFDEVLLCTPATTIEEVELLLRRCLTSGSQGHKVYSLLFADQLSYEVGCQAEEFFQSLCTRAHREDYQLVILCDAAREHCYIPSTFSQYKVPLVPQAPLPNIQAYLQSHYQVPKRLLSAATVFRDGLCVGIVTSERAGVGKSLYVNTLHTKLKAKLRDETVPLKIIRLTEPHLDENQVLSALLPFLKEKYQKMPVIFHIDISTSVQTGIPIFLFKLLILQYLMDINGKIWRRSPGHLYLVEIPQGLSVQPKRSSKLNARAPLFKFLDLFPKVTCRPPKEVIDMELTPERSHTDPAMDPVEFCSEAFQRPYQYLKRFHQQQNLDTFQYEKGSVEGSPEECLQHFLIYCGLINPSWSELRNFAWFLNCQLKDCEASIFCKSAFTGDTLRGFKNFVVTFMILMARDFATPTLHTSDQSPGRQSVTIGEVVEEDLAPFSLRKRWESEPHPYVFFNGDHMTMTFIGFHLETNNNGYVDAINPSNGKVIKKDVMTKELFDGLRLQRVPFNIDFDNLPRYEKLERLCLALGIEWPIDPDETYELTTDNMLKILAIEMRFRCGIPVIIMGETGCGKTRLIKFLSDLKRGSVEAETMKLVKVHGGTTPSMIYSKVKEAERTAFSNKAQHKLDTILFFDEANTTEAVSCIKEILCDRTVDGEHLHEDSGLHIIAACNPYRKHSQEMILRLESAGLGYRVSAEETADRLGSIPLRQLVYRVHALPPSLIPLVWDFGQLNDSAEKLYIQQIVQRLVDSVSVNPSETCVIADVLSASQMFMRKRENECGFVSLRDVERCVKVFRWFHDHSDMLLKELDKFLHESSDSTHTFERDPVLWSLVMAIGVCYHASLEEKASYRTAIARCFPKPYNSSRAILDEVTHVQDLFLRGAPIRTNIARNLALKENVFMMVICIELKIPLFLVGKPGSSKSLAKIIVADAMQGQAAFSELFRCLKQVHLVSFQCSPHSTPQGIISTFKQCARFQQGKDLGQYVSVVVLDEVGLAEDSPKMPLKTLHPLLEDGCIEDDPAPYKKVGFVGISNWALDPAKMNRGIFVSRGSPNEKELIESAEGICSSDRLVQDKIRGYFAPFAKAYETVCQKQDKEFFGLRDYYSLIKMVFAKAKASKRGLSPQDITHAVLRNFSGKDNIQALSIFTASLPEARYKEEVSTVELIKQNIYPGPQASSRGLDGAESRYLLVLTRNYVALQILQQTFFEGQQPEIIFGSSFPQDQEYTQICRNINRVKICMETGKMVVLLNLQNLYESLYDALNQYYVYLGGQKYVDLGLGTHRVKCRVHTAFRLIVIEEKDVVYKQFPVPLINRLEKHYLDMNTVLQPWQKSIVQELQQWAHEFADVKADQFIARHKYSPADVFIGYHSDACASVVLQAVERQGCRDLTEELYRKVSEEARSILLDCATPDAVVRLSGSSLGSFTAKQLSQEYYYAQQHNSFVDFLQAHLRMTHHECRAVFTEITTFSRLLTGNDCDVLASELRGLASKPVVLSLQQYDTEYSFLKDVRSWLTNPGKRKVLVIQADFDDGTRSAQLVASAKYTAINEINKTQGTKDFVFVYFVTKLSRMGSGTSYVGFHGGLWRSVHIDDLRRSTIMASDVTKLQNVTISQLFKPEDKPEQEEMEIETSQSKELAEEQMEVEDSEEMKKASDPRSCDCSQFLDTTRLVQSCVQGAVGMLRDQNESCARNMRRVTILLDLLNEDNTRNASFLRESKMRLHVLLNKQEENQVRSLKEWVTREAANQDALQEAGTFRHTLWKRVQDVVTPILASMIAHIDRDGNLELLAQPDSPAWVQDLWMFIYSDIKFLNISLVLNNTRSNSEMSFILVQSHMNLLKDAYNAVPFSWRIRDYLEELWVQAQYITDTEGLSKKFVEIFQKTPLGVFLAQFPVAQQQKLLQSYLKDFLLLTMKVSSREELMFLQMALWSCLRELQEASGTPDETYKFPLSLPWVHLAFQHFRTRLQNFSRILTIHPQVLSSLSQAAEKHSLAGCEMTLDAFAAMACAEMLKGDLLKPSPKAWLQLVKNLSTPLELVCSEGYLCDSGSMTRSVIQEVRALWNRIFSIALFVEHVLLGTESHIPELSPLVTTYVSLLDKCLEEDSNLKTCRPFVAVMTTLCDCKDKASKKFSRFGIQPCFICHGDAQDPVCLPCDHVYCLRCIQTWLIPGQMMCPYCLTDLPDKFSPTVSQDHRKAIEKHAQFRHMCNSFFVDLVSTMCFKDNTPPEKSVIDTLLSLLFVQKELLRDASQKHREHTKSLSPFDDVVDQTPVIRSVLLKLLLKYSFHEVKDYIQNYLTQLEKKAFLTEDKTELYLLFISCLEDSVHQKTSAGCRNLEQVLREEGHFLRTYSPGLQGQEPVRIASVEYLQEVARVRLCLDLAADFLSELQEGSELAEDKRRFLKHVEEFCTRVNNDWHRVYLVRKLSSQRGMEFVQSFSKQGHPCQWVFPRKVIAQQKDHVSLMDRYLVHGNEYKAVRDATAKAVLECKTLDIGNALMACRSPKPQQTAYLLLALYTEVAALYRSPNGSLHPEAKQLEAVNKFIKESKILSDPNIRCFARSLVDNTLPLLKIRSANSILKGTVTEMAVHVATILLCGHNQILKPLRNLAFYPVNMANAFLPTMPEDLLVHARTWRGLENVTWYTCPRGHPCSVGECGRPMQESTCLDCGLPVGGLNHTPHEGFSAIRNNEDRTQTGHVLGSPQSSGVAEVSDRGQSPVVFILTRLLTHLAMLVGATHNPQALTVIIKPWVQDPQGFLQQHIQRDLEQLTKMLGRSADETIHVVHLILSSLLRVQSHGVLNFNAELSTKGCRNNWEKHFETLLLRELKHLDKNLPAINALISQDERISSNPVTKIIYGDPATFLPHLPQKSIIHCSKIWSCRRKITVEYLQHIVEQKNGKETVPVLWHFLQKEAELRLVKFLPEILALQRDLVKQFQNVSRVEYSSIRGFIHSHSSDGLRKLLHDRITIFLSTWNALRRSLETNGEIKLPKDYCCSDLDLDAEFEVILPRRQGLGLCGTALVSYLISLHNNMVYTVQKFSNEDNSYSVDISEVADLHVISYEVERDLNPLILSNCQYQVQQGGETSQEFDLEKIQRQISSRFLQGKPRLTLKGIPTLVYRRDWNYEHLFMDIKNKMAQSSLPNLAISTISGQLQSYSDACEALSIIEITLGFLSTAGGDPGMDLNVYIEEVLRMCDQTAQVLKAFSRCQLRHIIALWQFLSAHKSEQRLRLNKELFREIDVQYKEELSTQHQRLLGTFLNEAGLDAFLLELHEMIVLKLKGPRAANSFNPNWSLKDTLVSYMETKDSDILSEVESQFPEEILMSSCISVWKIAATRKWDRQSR
UniProt O35718: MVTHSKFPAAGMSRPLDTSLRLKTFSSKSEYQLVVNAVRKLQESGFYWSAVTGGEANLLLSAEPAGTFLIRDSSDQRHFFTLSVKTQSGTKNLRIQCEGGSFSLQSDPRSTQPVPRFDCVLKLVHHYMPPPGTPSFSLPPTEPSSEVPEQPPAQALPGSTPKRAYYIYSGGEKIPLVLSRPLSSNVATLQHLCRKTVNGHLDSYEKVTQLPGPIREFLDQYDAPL

No constants are given. Whether binding was seen depends on the method and setting. In cells and extracts the contact can be indirect. Here binding means that the protein was enriched with, or labelled near, the bait; the list need not be complete.

The target in the experiment is Flag-tagged RNF213 (RING finger protein 213), transgene overexpressed in Treg cells of Rnf213^Tg Foxp3^Cre mice (UniProt E9Q555). Briefly: affinity purification with mass spectrometry; proteins from Treg cells of WT or Rnf213^Tg Foxp3^Cre mice immunoprecipitated with anti-Flag antibodies, eluted with 8 M urea, LC-MS.
As for SOCS3 (from UniProt O35718 1-225), the binding entry is on record as “binds”. As to B1, the binding entry is reported as “binds”. In the case of B2 it was “binds”. In the case of B3 it was “binds”.

The values above are taken from article PMC11252262.
